In the supplement of paper PMC7666118:
This is one part of the list.

Sequences of proteins named here, by UniProt entry; tags and fusion partners are left off. A change or cut given only in a name is not applied to a line headed by its entry.
UniProt Q8IWF6: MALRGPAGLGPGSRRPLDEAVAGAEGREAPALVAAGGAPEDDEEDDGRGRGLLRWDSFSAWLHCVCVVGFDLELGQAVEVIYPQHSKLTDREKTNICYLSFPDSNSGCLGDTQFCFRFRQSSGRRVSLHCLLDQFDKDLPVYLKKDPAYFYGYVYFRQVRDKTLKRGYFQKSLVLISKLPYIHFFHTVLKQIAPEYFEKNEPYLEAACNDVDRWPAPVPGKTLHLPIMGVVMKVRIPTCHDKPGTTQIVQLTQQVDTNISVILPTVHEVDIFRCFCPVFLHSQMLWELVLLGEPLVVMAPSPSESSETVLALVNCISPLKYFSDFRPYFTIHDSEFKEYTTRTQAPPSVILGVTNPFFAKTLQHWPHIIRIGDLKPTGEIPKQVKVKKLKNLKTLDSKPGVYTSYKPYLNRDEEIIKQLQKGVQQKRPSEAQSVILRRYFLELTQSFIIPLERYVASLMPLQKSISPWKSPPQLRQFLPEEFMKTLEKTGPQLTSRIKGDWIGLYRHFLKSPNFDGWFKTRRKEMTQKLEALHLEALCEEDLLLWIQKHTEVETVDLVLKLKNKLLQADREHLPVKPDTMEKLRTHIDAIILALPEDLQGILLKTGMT
UniProt Q5JUQ0: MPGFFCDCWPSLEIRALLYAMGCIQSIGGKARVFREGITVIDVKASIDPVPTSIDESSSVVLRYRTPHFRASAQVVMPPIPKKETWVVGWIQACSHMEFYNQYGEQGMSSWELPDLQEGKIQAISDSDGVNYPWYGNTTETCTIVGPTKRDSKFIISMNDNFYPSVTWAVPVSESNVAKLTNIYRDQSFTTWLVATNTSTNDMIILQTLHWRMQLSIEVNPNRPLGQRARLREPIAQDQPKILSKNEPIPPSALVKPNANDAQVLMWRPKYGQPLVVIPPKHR
UniProt Q9H019: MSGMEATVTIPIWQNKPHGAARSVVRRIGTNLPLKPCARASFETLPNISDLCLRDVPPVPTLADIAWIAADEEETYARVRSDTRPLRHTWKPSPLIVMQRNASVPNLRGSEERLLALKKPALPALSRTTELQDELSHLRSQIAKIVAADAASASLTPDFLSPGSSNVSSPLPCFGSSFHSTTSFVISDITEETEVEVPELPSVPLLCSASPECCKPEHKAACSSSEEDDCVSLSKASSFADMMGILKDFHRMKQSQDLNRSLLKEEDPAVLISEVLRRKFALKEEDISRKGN
UniProt Q96CS3: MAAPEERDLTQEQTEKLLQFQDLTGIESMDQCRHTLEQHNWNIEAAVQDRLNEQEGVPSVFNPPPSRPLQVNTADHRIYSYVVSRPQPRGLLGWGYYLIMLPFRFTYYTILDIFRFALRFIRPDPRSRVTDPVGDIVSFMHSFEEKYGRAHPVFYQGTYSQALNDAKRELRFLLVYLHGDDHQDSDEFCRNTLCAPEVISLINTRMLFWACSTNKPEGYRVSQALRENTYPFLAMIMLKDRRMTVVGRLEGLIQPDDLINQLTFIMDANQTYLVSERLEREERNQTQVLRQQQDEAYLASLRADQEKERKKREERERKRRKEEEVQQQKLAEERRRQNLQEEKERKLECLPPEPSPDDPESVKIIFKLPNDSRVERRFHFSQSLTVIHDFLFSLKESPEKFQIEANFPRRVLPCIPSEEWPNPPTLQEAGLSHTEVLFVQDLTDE
UniProt O00471: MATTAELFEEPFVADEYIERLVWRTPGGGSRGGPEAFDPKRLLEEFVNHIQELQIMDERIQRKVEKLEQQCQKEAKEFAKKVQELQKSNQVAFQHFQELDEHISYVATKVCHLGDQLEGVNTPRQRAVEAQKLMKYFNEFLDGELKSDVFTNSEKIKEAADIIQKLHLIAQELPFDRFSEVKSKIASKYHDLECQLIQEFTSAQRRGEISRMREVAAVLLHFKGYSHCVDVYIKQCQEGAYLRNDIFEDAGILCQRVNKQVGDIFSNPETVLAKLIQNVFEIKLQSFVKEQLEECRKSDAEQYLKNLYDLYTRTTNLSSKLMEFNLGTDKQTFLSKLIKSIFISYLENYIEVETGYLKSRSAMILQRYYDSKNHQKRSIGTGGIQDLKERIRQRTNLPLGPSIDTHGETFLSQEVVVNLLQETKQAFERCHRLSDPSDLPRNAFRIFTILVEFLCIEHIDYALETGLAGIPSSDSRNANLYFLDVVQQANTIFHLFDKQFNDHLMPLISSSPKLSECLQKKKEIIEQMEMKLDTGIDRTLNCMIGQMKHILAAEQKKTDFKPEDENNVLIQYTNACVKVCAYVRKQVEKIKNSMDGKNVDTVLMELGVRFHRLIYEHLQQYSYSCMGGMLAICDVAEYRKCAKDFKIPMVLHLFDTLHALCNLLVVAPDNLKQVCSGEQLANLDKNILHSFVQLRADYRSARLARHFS
UniProt Q5VSL9: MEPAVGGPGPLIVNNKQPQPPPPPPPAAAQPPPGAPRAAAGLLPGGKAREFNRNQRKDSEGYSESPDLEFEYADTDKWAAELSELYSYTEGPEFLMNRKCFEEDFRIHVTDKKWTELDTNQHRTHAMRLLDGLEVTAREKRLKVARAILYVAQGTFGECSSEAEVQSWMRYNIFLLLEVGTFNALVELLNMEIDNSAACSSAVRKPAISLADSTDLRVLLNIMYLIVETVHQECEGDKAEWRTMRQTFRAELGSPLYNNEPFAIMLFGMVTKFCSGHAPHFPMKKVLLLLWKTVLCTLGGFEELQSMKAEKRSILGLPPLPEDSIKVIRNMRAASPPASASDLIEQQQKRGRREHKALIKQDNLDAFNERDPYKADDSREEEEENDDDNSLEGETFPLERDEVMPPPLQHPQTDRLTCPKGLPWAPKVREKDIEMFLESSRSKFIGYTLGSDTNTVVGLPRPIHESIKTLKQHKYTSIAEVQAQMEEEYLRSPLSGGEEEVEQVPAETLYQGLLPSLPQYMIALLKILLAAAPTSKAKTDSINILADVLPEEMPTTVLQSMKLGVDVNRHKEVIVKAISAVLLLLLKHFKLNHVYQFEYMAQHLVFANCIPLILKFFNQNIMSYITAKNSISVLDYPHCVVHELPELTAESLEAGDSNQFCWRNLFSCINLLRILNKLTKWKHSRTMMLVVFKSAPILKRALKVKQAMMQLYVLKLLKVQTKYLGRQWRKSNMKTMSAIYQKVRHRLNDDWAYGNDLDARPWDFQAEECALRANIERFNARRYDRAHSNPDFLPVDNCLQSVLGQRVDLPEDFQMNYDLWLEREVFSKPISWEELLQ
UniProt O60645: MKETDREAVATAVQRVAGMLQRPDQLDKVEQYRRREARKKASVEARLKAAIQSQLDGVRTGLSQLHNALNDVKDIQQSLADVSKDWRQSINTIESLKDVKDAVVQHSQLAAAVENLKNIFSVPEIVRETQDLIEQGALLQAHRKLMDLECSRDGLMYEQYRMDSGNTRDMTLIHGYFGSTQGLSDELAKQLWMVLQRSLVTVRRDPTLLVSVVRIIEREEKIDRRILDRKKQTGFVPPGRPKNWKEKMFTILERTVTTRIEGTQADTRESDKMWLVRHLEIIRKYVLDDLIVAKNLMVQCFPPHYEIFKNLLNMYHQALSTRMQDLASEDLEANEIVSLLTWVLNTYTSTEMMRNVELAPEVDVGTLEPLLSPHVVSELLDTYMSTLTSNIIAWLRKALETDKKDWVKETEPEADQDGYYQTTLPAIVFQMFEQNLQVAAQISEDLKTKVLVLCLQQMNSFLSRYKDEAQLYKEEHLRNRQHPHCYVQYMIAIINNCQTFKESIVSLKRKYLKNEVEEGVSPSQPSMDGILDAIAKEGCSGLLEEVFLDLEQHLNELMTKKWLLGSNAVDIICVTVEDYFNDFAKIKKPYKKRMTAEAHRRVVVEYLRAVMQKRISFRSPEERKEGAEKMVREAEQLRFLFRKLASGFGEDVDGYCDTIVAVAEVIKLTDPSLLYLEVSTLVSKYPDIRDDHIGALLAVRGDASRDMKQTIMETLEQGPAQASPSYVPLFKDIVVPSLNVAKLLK
UniProt Q14318: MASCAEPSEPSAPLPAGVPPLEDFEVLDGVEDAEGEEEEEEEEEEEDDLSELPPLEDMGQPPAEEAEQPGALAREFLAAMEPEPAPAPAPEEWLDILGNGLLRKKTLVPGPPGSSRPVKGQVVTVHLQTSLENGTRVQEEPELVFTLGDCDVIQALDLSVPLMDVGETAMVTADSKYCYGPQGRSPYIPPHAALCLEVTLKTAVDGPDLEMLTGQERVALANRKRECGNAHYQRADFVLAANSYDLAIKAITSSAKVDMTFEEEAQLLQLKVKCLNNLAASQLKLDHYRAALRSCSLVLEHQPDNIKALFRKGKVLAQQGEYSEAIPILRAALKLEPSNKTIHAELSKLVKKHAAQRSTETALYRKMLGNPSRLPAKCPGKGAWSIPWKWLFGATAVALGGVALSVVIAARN
UniProt Q9UET6: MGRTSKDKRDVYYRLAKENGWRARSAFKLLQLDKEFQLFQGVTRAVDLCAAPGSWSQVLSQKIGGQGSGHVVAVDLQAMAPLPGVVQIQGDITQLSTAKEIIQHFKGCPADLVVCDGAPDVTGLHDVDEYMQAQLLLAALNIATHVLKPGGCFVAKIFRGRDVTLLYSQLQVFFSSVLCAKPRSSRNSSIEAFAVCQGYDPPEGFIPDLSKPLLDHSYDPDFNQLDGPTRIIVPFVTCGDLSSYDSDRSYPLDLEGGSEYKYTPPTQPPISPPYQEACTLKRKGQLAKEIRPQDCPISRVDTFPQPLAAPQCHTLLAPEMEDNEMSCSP
UniProt Q8N128: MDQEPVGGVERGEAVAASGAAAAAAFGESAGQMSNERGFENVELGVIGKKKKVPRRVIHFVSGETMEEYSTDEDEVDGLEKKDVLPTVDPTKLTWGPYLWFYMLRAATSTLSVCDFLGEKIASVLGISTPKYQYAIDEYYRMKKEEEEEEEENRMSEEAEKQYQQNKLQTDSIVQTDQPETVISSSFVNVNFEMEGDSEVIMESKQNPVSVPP
UniProt Q6P444: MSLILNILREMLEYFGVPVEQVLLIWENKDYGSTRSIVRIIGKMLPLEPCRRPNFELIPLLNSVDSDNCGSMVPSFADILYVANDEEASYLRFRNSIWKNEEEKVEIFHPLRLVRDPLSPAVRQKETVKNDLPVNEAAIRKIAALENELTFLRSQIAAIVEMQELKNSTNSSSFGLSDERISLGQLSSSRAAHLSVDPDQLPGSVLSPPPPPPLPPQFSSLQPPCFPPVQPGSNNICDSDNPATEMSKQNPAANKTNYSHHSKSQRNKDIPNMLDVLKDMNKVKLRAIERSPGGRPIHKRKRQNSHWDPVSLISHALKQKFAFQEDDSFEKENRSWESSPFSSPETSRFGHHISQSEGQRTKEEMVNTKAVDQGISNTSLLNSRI
UniProt O15117, whole entry: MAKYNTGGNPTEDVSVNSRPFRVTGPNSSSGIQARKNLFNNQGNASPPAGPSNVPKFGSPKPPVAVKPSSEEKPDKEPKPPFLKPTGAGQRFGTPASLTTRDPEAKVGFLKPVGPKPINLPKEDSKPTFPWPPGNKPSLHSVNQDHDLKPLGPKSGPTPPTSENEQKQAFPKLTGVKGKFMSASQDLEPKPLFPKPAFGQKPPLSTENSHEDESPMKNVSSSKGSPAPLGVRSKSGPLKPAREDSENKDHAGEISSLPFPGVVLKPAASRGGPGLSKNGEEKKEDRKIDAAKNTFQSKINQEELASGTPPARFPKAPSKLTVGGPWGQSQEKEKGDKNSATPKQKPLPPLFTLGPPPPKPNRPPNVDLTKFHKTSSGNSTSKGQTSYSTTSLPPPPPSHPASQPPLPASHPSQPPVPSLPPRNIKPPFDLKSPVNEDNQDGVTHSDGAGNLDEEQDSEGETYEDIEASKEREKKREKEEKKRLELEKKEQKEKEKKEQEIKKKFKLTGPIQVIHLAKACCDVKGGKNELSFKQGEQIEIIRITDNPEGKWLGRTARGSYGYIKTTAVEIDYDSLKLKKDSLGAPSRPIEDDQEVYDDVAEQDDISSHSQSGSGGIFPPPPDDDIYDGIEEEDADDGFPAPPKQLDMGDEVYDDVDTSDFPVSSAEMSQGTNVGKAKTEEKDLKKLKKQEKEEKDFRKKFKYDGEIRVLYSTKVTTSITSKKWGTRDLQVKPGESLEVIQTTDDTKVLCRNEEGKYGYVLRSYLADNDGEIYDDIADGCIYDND
UniProt Q14254: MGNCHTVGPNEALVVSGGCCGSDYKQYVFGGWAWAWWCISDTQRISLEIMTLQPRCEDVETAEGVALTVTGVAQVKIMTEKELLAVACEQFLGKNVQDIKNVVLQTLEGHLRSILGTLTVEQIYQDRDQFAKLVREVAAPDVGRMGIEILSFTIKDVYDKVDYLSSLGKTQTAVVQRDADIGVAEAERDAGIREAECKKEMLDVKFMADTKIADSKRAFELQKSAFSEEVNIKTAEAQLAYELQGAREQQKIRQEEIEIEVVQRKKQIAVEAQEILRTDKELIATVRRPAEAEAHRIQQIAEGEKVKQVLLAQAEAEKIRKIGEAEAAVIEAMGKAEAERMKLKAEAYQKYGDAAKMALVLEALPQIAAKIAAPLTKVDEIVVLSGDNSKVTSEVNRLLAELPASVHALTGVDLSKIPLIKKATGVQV

Compound: COc1ccc(Cn2ccc3ccc(C(=O)NO)cc32)cc1
Experiment: dose-dependent thermal stabilisation call (2D-TPP, DLPTP, 10% FDR) (binary (1 = stabilised)); higher = stabilised by the compound
Settings: system: HL-60 intact cells; concentration range 0.04-10 µM

| Target | dose-dependent thermal stabilisation call |
| --- | --- |
| FAM116A (UniProt Q8IWF6) | inactive: 0 |
| FAM135A (UniProt Q9P2D6) | inactive: 0 |
| FAM78A (UniProt Q5JUQ0) | inactive: 0 |
| FAM98A (UniProt Q8NCA5) | inactive: 0 |
| FLJ20323 | inactive: 0 |
| FDFT1 (UniProt P37268) | inactive: 0 |
| FAM54B (UniProt Q9H019) | inactive: 0 |
| GAPVD1 (UniProt Q14C86) | inactive: 0 |
| GALE (UniProt Q14376) | inactive: 0 |
| GBL (UniProt Q9BVC4) | inactive: 0 |
| FAF2 (UniProt Q96CS3) | inactive: 0 |
| FRY (UniProt Q5TBA9) | inactive: 0 |
| EXOC5 (UniProt O00471) | inactive: 0 |
| EVI2B (UniProt P34910) | inactive: 0 |
| FPGT (UniProt O14772) | inactive: 0 |
| FAM118B (UniProt Q9BPY3) | inactive: 0 |
| FIG4 (UniProt Q92562) | inactive: 0 |
| FAM40A (UniProt Q5VSL9) | inactive: 0 |
| EXOC3 (UniProt O60645) | inactive: 0 |

2 entries from above, field by field:
FDFT1 (UniProt P37268)
  dose-dependent thermal stabilisation call: inactive: 0
FAM118B (UniProt Q9BPY3)
  dose-dependent thermal stabilisation call: inactive: 0

Remaining list, next part:

| Target | dose-dependent thermal stabilisation call |
| --- | --- |
| FAM82A2 (UniProt Q96TC7) | inactive: 0 |
| FAM91A1 (UniProt Q658Y4) | inactive: 0 |
| FADS2 (UniProt O95864) | inactive: 0 |
| FKBP8 (UniProt Q14318) | inactive: 0 |
| FBXL10 (UniProt Q8NHM5) | inactive: 0 |
| GALNT7 (UniProt Q86SF2) | inactive: 0 |
| G3BP1 (UniProt Q13283) | inactive: 0 |
| FTSJ1 (UniProt Q9UET6) | active: 1 |
| FAM177A1 (UniProt Q8N128) | inactive: 0 |
| GAR1 (UniProt Q9NY12) | inactive: 0 |
| FAM54A (UniProt Q6P444) | inactive: 0 |
| GCAT (UniProt O75600) | inactive: 0 |
| FYB (UniProt O15117) | inactive: 0 |
| GATC (UniProt O43716) | inactive: 0 |
| FAM122A (UniProt Q96E09) | inactive: 0 |
| FXN (UniProt Q16595) | inactive: 0 |
| FLOT2 (UniProt Q14254) | inactive: 0 |
| GATM (UniProt P50440) | inactive: 0 |
| GBF1 (UniProt Q92538) | inactive: 0 |
